No constants are given. Whether binding was seen depends on the method and setting. Some results given as binding are weak or reduced against the parent protein; the word gives no strength.
Columns and labels:
[1] = molecular target: rat endogenous tau (rat) (UniProt P19332); assay: immunoblot of soluble and sarkosyl-insoluble brain fractions
[2] = molecular target: rat endogenous tau (rat) (UniProt P19332); assay: immunoblot of brain extracts (soluble and sarkosyl-insoluble fractions) with DC8E8 hybridoma culture supernate, anti-mouse Ig-HRP
[3] = molecular target: rat endogenous tau (rat) (UniProt P19332); assay: immunoblot of brain fractions
[4] = molecular target: 352-380/R4; assay: ELISA, synthetic peptide coated (5 µg/ml), DC8E8 hybridoma culture supernate, anti-mouse Ig-HRP, absorbance 492 nm

Protein sequences, listed by entry. Tags and fused reporters are not part of them. Lines headed by an entry give the natural chain unless they say otherwise; changes in a name come on top. Chains listed by the source or under a name are the forms on record and can include a tag or linker.
rat endogenous tau (P19332, form named): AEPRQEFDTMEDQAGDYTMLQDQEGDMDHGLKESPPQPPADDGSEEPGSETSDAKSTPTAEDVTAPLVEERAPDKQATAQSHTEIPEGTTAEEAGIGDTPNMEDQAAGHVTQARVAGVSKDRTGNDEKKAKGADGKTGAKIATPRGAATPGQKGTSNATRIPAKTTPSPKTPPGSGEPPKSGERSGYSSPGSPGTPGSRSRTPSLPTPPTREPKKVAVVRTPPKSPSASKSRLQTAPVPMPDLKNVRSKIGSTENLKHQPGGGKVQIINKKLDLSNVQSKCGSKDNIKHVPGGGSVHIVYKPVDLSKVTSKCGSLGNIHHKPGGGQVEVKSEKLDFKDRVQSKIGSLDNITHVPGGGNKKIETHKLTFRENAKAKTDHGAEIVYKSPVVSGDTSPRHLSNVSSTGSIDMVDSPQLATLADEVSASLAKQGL

Measured: binding

B1: monoclonal antibody DC8E8 (antibody, V domains shown)
VH: QVQLQQSGPELVKPGTSVKMPCKASGYIFTDYVISWVKQRTGQGLEWIGEIFPRSGSTYYNEKFKGKATLTADKSSNTAYMQLSSVTSEDSAVYFCARDYYGTSFAMDYWGQGTSVTVSS
VL: DIVMSQSPSSLAVSAGEKVTMSCKSSQSLLNSRTRKNYLAWYQQKPGQSPKLLIYWASTRESGVPDRFTGSGSGTDFTLTISSVQAEDLAVYYCKQSFYLRTFGGGTKLDIK
binds: all assays above

Reference: patent US20180282401A1
